This is an account of results in patent US6569833B1, “Cyclin dependent kinase binding peptides” (Cyclacel Limited, priority 1995, dated 2003).

The chains behind the UniProt entries cited, without tags or fusion partners.
UniProt P11802: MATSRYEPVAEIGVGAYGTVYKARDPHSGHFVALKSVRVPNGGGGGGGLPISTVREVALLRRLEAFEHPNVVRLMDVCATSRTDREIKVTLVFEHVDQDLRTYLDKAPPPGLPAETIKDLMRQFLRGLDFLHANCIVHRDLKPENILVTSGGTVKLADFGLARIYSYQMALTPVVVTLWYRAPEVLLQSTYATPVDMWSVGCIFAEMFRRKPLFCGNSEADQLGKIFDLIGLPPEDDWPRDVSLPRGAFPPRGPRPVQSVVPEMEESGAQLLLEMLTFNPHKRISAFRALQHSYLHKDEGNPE
UniProt Q00534: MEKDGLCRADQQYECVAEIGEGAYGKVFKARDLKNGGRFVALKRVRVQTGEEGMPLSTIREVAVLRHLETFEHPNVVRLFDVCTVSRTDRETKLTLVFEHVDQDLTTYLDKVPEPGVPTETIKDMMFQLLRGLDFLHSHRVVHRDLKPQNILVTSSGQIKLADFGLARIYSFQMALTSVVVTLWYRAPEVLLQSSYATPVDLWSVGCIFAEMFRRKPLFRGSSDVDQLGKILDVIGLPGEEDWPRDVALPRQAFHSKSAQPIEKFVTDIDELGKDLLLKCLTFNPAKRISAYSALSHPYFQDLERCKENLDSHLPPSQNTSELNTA

Results are given in words; binding and its absence hold for the method and conditions named. In cells and extracts the contact can be indirect. Some entries that bind do so weakly or less than the wild type.

Test [1] has as its target T1, cdk4 (human, UniProt P11802 1-303). Briefly: alanine substitution series, pull-down of in vitro translated kinase.
Test [2] deals with T2, cdk6 (Homo sapiens, UniProt Q00534). The test is described as above.
Test [3] concerns the target T1, cdk4. Briefly: alanine substitution series, pull-down.
Test [4] addresses T2, cdk6. The experiment in a line: alanine substitution series, pull-down.
Test [5] addresses T1, cdk4. The experiment in a line: alanine substitution series, pull-down of 35S-labelled kinase.
The target of test [6] is T2, cdk6. Described as above.
The target in test [7] is T1, cdk4. Briefly: biotinylated peptide pull-down of 35S-labelled kinase.
Test [8] concerns the target T2, cdk6. The test is described as above.
The target of test [9] is T1, cdk4. Briefly: deletion series, biotinylated peptide pull-down of 35S-labelled kinase.
Test [10] deals with T2, cdk6. Described as above.

Regarding SGSGDAAREGFLATLVVLHRAGAR (biotin coupled to the N-terminus of the SGSG linker) [peptide 6 with aspartic acid 92 substituted by alanine], the binding entry with cdk4 [1], in the test with cdk6 [2], in the test with cdk4 [3], in the test with cdk6 [4], with cdk4 [5] and in the test with cdk6 [6] was “binds” throughout.

For SGSGDAAREGFLDTLVVLHGSGAR (biotin coupled to the N-terminus of the Ser-Gly-Ser-Gly linker) [mouse p16 peptide corresponding to the 84-103 region of p16], the binding entry with cdk4 [7] and in the test with cdk6 [8] was “binds” throughout.

Consider SGSGEGFLDTLVVLHRAGAR (biotin coupled to the N-terminus of the Ser-Gly-Ser-Gly linker) [peptide 7 of FIGS. 5A-C (16 aa p16 fragment)], for which the binding result with cdk4 [9] and with cdk6 [10] was “binds” throughout.

Turning to SGSGDAARAGFLDTLQTLLEFQAD (biotin coupled to the N-terminus of the Ser-Gly-Ser-Gly linker) [p18 peptide corresponding to the 84-103 region of p16], the binding entry in the test with cdk4 [7] and in the test with cdk6 [8] was “binds” in each case.

As for SGSGFLDTLVVLHR (biotin coupled to the N-terminus of the Ser-Gly-Ser-Gly linker) [peptide 10 of FIGS. 5A-C (10 aa p16 fragment, minimal binding peptide)], the binding entry with cdk4 [9] and with cdk6 [10] was “binds” each time.
